This note sets out measurements from article PMC3006138, “Fexinidazole – A New Oral Nitroimidazole Drug Candidate Entering Clinical Development for the Treatment of Sleeping Sickness” (PLoS Neglected Tropical Diseases, 2010).

A short description of this data set: Caco-2 permeability. Conditions: human. As for the experimental part:
Caco-2 [36] or MDR1-MDCK (Madin Darby canine kidney cells transfected with the human multidrug resistance MDR1 gene) cell monolayers were grown to confluence on collagen-coated, microporous, polycarbonate membranes in 12-well microtitre plates. The buffer for the donor chamber was Hanks balanced salt solution with 10 mM HEPES and 15 mM glucose at pH 7.4. The buffer in the receiver chamber contained the same with the addition of 1% bovine serum albumin (BSA). The test article was added at 5 µM in the assay buffer. […] After 2 h, duplicate aliquots were taken from the donor and receiver chambers and assayed via LC/MS. The apparent permeability and recovery were calculated using standard methods.
The objective of this study was to determine the bi-directional Caco-2 permeability and efflux limited absorption poten tial of thr ee test compoun ds. […]
4 . […] Th e test compound dosing concentrations were 5 µM in th e a ssay bu f fer . […] After two hours, a l iquot s wer e t a ken fr om th e r ecei ver an d don or cha m ber s. E a ch det erm ina ti on wa s per for m ed in dupl i cat e. […] Analytical conditions are outlined in Attachment I. The apparent permeability, Papp, and per cen t r ecover y wer e calculated as follows: […]
On the technique in general: Caco-2 cells form a polarised layer with tight junctions and transporters.

Each structure is given as a SMILES string.

Usually Papp stands for the rate of passage across a membrane or cell layer, normalised by area and donor concentration. A lower Papp goes with slow passage. Take `CC(C)NCC(O)COc1ccc(CC(N)=O)cc1` (stereo not shown) [Atenolol, reference compound]: the Papp came to 0.26 ×10⁻⁶ cm/s.
